Earlier results as cited in article PMC11388056 (Clinical and Translational Science, 2024).

Assays:
Conditions in all cases: in vitro, at clinically relevant concentrations; cited from earlier work
[1] = system: organic anion transporter [OAT]1
OAT3 = system: OAT3
[2] = system: organic cation transporter 2
OATP1B1 = system: OATP1B1
OATP1B3 = system: OATP1B3
MATE1 = system: MATE1
MATE2K = system: MATE2K

C=CC(=O)N1CC[C@H](n2nc(C#Cc3cc(OC)cc(OC)c3)c3c(N)ncnc32)C1 [futibatinib]
does not inhibit: inhibition of OAT1 [1] | inhibition of OAT3 (OAT3) | inhibition of organic cation transporter 2 [2] | inhibition of OATP1B1 (OATP1B1) | inhibition of OATP1B3 (OATP1B3) | inhibition of MATE1 (MATE1) | inhibition of MATE2K (MATE2K)
